Results as given in patent US7544481 (REGENTS OF THE UNIVERSITY OF MICHIGAN, dated 2009).
No constants are given. Whether binding was seen depends on the method and setting. In cells and extracts the contact can be indirect. Some results given as binding are weak or reduced against the parent protein; the word gives no strength. For some of these results: Tags and fused reporters may be left off the sequences shown. One block for each binder: values may come before it.

Protein sequences, listed by entry. Tags and fused reporters are not part of them. Lines headed by an entry give the natural chain unless they say otherwise; changes in a name come on top. Chains listed by the source or under a name are the forms on record and can include a tag or linker. Residues count along the entry.
UniProt P25942: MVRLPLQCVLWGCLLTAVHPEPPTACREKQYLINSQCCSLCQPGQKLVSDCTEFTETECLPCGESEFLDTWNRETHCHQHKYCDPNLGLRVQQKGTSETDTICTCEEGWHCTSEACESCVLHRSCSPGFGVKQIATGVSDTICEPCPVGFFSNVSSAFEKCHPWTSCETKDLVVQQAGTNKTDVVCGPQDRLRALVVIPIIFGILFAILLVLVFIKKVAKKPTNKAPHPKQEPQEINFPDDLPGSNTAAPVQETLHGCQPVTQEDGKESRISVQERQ
native CD40 (full-length): residues 21-277 of P25942
GSTCD40T (GST fused to the native CD40 cytoplasmic domain): residues 216-277 of P25942

How the values were obtained:
[1] = target: GSTCD40T (GST fused to the native CD40 cytoplasmic domain) (human) (UniProt P25942); experiment: GST pull-down of in vitro translated 35S-labeled CD40bp, autoradiography
[2] = target: native CD40 (full-length) (human) (UniProt P25942); experiment: co-immunoprecipitation from transfected 293T and BJAB cells (figure legend)
[3] = target: native CD40 (full-length) (human) (UniProt P25942); experiment: co-immunoprecipitation with endogenous CD40 from transfected BJAB B cells, then re-immunoprecipitation with anti-HA
[4] = target: native CD40 (full-length) (human) (UniProt P25942); experiment: co-immunoprecipitation with anti-CD40 antibody from cotransfected 293T cells, confirmed by re-immunoprecipitation with anti-HA

binding [1]: binds
B1: in vitro translated [35S]methionine-labeled CD40bp (protein)
chain: MESSKKMDSPGALQTNPPLKLHTDRSAGTPVFVPEQGGYKEKFVKTVEDKYKCEKCHLVLCSPKQTECGHRFCESCMAALLSSSSPKCTACQESIVKDKVFKDNCCKREILALQIYCRNESRGCAEQLMLGHLVHLKNDCHFEELPCVRPDCKEKVLRKDLRDHVEKACKYREATCSHCKSQVPMIALQKHEDTDCPCVVVSCPHKCSVQTLLRSELSAHLSECVNAPSTCSFKRYGCVFQGTNQQIKAHEASSAVQHVNLLKEWSNSLEKKVSLLQNESVEKNKSIQSLHNQICSFEIEIERQKEMLRNNESKILHLQRVIDSQAEKLKELDKEIRPFRQNWEEADSMKSSVESLQNRVTELESVDKSAGQVARNTGLLESQLSRHDQMLSVHDIRLADMDLGFQVLETASYNGVLIWKIRDYKRRKQEAVMGKTLSLYSQPFYTGYFGYKMCARVYLNGDGMGKGTHLSLFFVIMRGEYDALLPWPFKQKVTLMLMDQGSSRRHLGDAFKPDPNSSSFKKPTGEMNIASGCPVFVAQTVLENGTYIKDDTIFIKVIVDTSDLPDP
modifications: [35S]methionine label

binding [2]: binds | binding [3]: binds | binding [4]: binds
B2: HA epitope-tagged CD40bp (protein)
chain: YPYDVPDYAMESSKKMDSPGALQTNPPLKLHTDRSAGTPVFVPEQGGYKEKFVKTVEDKYKCEKCHLVLCSPKQTECGHRFCESCMAALLSSSSPKCTACQESIVKDKVFKDNCCKREILALQIYCRNESRGCAEQLMLGHLVHLKNDCHFEELPCVRPDCKEKVLRKDLRDHVEKACKYREATCSHCKSQVPMIALQKHEDTDCPCVVVSCPHKCSVQTLLRSELSAHLSECVNAPSTCSFKRYGCVFQGTNQQIKAHEASSAVQHVNLLKEWSNSLEKKVSLLQNESVEKNKSIQSLHNQICSFEIEIERQKEMLRNNESKILHLQRVIDSQAEKLKELDKEIRPFRQNWEEADSMKSSVESLQNRVTELESVDKSAGQVARNTGLLESQLSRHDQMLSVHDIRLADMDLGFQVLETASYNGVLIWKIRDYKRRKQEAVMGKTLSLYSQPFYTGYFGYKMCARVYLNGDGMGKGTHLSLFFVIMRGEYDALLPWPFKQKVTLMLMDQGSSRRHLGDAFKPDPNSSSFKKPTGEMNIASGCPVFVAQTVLENGTYIKDDTIFIKVIVDTSDLPDP
